# Assay results as given in the supplement of paper PMC10331698.
# ± gives the standard deviation of the averaged measurements. Most entries show no effect beyond the scatter of the controls.
# Tests used:
# Test in all cases: level (log10 ratio to DMSO vehicle control); higher = higher biomarker level / cell amount than vehicle control
# [1] = compound: C=C(C)C(=O)OCCC(F)(F)C(F)(F)C(F)(F)C(F)(F)C(F)(C(F)(F)F)C(F)(F)F [(Perfluoro-5-methylhexyl)ethyl 2-methylprop-2-enoate]; conditions: in DMSO
# Procedure: (§1)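 BioMAP Diversity Plus panel of 12 human primary cell co-culture systems (3C, 4H, LPS, SAg, BT, BF4T, BE3C, CASM3C, HDF3CGF, KF3CT, MyoF, Mphg). Compounds were added 1 h before stimulation and left for 24 h (MyoF 48 h; BT 72 h for soluble read-outs or 6 d for IgG). Biomarkers were read by ELISA, cytotoxicity by SRB, PBMC viability and proliferation by Alamar Blue. Each well value was divided by the mean of 8 DMSO control wells on the same plate and log10 transformed; duplicate blinded samples were tested at 4 concentrations.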
# [2] = compound: C=C(C)C(=O)OCCC(F)(F)C(F)(F)C(F)(F)C(F)(F)C(F)(F)C(F)(F)C(F)(F)C(F)(F)F [8:2 Fluorotelomer methacrylate]; conditions: in DMSO
# Procedure: as §1
# [3] = compound: COC(=O)CCC(F)(F)C(F)(F)C(F)(F)C(F)(F)F [Methyl 2H,2H,3H,3H-perfluoroheptanoate]; conditions: 2200 nM; in DMSO
# Procedure: as §1
# [4] = compound: FC(F)(F)C(F)(F)C(F)(F)C(F)(F)C(F)(F)CCI [1-Iodo-1H,1H,2H,2H-perfluoroheptane]; conditions: 2200 nM; in DMSO
# Procedure: as §1
# Octafluoroadipamide = compound: NC(=O)C(F)(F)C(F)(F)C(F)(F)C(F)(F)C(N)=O [Octafluoroadipamide]; conditions: 2200 nM; in DMSO
# Procedure: as §1
# Nonafluoropentanamide = compound: NC(=O)C(F)(F)C(F)(F)C(F)(F)C(F)(F)F [Nonafluoropentanamide]; conditions: 2200 nM; in DMSO
# Procedure: as §1
# [5] = compound: NS(=O)(=O)C(F)(F)C(F)(F)C(F)(F)C(F)(F)C(F)(F)C(F)(F)F [Perfluorohexanesulfonamide]; conditions: 2200 nM; in DMSO
# Procedure: as §1
# Tetrafluorosuccinic acid = compound: O=C(O)C(F)(F)C(F)(F)C(=O)O [Tetrafluorosuccinic acid]; conditions: 2200 nM; in DMSO
# Procedure: as §1
# [6] = compound: O=C(O)C(F)(F)C(F)(F)C(F)(F)C(F)(F)C(F)(F)C(F)(F)C(F)(F)C(F)(F)Cl [9-Chloro-perfluorononanoic acid]; conditions: in DMSO
# Procedure: as §1
# [7] = compound: O=C(O)CCC(F)(F)C(F)(F)C(F)(F)C(F)(F)C(F)(F)F [2H,2H,3H,3H-Perfluorooctanoic acid]; conditions: 2200 nM; in DMSO
# Procedure: as §1
# [8] = compound: O=S(=O)(O)C(F)(F)C(F)(F)OC(F)(F)C(F)(F)F [Perfluoro(2-ethoxyethane)sulfonic acid]; conditions: 2200 nM; in DMSO
# Procedure: as §1
# [9] = compound: O=S(=O)(O)CCC(F)(F)C(F)(F)C(F)(F)C(F)(F)C(F)(F)C(F)(F)F [6:2 Fluorotelomer sulfonic acid]; conditions: in DMSO
# Procedure: as §1
# Perfluoropinacol = compound: OC(C(F)(F)F)(C(F)(F)F)C(O)(C(F)(F)F)C(F)(F)F [Perfluoropinacol]; conditions: in DMSO
# Procedure: as §1
# [10] = compound: OCCC(F)(F)C(F)(F)C(F)(F)C(F)(F)F [4:2 Fluorotelomer alcohol]; conditions: 2200 nM; in DMSO
# Procedure: as §1
Test System,level (log10) ([1]; 740 nM),level (log10) ([1]; 2200 nM),level (log10) ([1]; 6700 nM),level (log10) ([1]; 20000 nM),level (log10) ([2]; 740 nM),level (log10) ([2]; 2200 nM),level (log10) [3],level (log10) [4],level (log10) (Octafluoroadipamide),level (log10) (Nonafluoropentanamide),level (log10) [5],level (log10) (Tetrafluorosuccinic acid),level (log10) ([6]; 2200 nM),level (log10) ([6]; 6700 nM),level (log10) ([6]; 20000 nM),level (log10) [7],level (log10) [8],level (log10) ([9]; 2200 nM),level (log10) ([9]; 6700 nM),level (log10) ([9]; 20000 nM),level (log10) ([9]; 60000 nM),level (log10) (Perfluoropinacol; 2200 nM),level (log10) (Perfluoropinacol; 6700 nM),level (log10) (Perfluoropinacol; 20000 nM),level (log10) [10]
lMphg:IL-1alpha,0.018 ± 0.018,0.0205 ± 0.0078,0.016 ± 0.018,0.0385 ± 0.026,0.0115 ± 0.079,0.0215 ± 0.044,0.026 ± 0.042,0.038 ± 0.037,0.0125 ± 0.067,0.003 ± 0.044,0.006 ± 0.071,0.018 ± 0.021,0.005 ± 0.065,0.014 ± 0.027,0.0635 ± 0.046,0.0225 ± 0.063,-0.0115 ± 0.025,-0.001 ± 0.0099,0.0395 ± 0.05,0.0235 ± 0.035,0.0215 ± 0.039,0.0555 ± 0.049,0.103 ± 0.021,0.149 ± 0.067,-0.0155 ± 0.016
HDF3CGF:CXCL9/MIG,0.0135 ± 0.025,0.004 ± 0.0085,0.0135 ± 0.00071,0.0095 ± 0.011,-0.001 ± 0.0014,-0.0025 ± 0.018,0.0045 ± 0.029,-0.055 ± 0.04,-0.0035 ± 0.025,0.004 ± 0.011,-0.0075 ± 0.015,0.0055 ± 0.049,-0.041 ± 0.033,-0.047 ± 0.02,-0.142 ± 0.04,-0.035 ± 0.051,0.0095 ± 0.0021,-0.0165 ± 0.036,-0.013 ± 0.048,-0.0395 ± 0.018,-0.046 ± 0.038,-0.0395 ± 0.012,-0.018 ± 0.018,-0.0675 ± 0.012,0.005 ± 0.013
KF3CT:uPA,0.004 ± 0.014,0.006 ± 0.0085,0.007 ± 0.0057,0.007 ± 0.0028,-0.0065 ± 0.013,-0.0065 ± 0.0092,0 ± 0.0028,-0.0065 ± 0.028,-0.01 ± 0.0057,0.0115 ± 0.00071,-0.02 ± 0.038,-0.015 ± 0.014,0.0145 ± 0.0064,0.0095 ± 0.0078,0.01,-0.005 ± 0.0071,0.003 ± 0.017,-0.002 ± 0.0085,0.0015 ± 0.005,-0.0115 ± 0.019,0.008 ± 0.03,-0.0005 ± 0.046,0.0065 ± 0.035,0.019 ± 0.021,-0.021 ± 0.0085
HDF3CGF:Collagen III,-0.0095 ± 0.0078,0.002 ± 0.011,-0.0195 ± 0.05,0.0105 ± 0.05,-0.0125 ± 0.0064,-0.039 ± 0.068,-0.0215 ± 0.036,0.002 ± 0.024,0.023 ± 0.068,0.021 ± 0.057,0.0385 ± 0.046,-0.064 ± 0.071,-0.0655 ± 0.064,-0.0835 ± 0.046,-0.235 ± 0.061,-0.0705 ± 0.019,-0.056 ± 0.13,-0.0495 ± 0.023,-0.0555 ± 0.015,-0.0115 ± 0.019,0.03 ± 0.093,0.008 ± 0.023,0.0175 ± 0.0078,-0.0845 ± 0.0064,-0.04 ± 0.1
4H:CCL26/Eotaxin-3,0.02 ± 0.073,0.018 ± 0.033,0.042 ± 0.058,0.039 ± 0.02,-0.0165 ± 0.043,-0.022 ± 0.023,-0.0215 ± 0.012,-0.0055 ± 0.0064,0.0645 ± 0.042,-0.012 ± 0.035,0.0045 ± 0.0064,-0.0145 ± 0.0021,-0.006 ± 0.025,-0.04 ± 0.011,0.016 ± 0.037,0.025 ± 0.023,0.0425 ± 0.013,0.0355 ± 0.0064,0.017 ± 0.0014,-0.0285 ± 0.023,-0.095 ± 0.018,0.0005 ± 0.033,-0.03 ± 0.048,-0.179 ± 0.037,-0.0085 ± 0.0064
BE3C:Keratin 8/18,-0.014 ± 0.0099,-0.007 ± 0.0085,-0.0185 ± 0.0092,0.0005 ± 0.0064,-0.002 ± 0.057,0.005 ± 0.045,-0.029 ± 0.03,-0.0005 ± 0.019,0.0035 ± 0.012,0 ± 0.017,0.0025 ± 0.005,-0.01 ± 0.0042,0 ± 0.0071,-0.0025 ± 0.015,0.0095 ± 0.0092,-0.01 ± 0.013,-0.008 ± 0.0028,-0.007 ± 0.0085,0.001 ± 0.0071,-0.0185 ± 0.00071,-0.0085 ± 0.019,-0.008 ± 0.0042,-0.0145 ± 0.00071,-0.019 ± 0.0028,-0.0235 ± 0.021
MyoF:TIMP-1,-0.022 ± 0.031,-0.0285 ± 0.0035,-0.031 ± 0.023,-0.024 ± 0.0057,-0.0335 ± 0.0035,-0.014 ± 0.062,-0.0145 ± 0.073,-0.006 ± 0.0057,0.031 ± 0.021,-0.0205 ± 0.0078,0.0305 ± 0.033,-0.0075 ± 0.0021,-0.0335 ± 0.043,-0.0445 ± 0.063,-0.006 ± 0.057,-0.0515 ± 0.05,-0.038 ± 0.025,-0.0535 ± 0.033,-0.032 ± 0.052,0.031 ± 0.042,0.097 ± 0.011,-0.036 ± 0.0099,0.006 ± 0.016,-0.021 ± 0.0028,-0.0025 ± 0.06
lMphg:SRB,-0.0025 ± 0.0092,-0.0055 ± 0.013,-0.0035 ± 0.0035,-0.0105 ± 0.0021,0.0035 ± 0.0092,0.0015 ± 0.0021,-0.009 ± 0.0028,-0.0045 ± 0.015,0.007 ± 0.024,0.0035 ± 0.0078,-0.0005 ± 0.005,-0.014 ± 0.021,-0.0025 ± 0.021,0.0105 ± 0.0092,0.013 ± 0.0042,-0.011 ± 0.014,-0.01 ± 0.0085,-0.0045 ± 0.028,-0.001 ± 0.011,0.0125 ± 0.019,-0.002 ± 0.018,-0.01 ± 0.016,-0.0315 ± 0.0035,-0.144 ± 0.0064,-0.0065 ± 0.0078
lMphg:sIL-10,0.0105 ± 0.06,0.047 ± 0.02,0.0215 ± 0.029,-0.0195 ± 0.12,-0.0485 ± 0.054,-0.034 ± 0.024,-0.0045 ± 0.021,0.0345 ± 0.047,-0.0515 ± 0.029,0.028 ± 0.096,0.0115 ± 0.016,-0.0465 ± 0.013,0.0345 ± 0.012,0.0205 ± 0.0078,-0.015 ± 0.0085,-0.0335 ± 0.069,-0.0095 ± 0.0021,0.0045 ± 0.04,-0.025 ± 0.037,-0.015 ± 0.02,-0.049 ± 0.0057,0.0645 ± 0.005,0.031 ± 0.017,-0.498 ± 0.24,-0.0255 ± 0.023
HDF3CGF:TIMP-2,-0.0285 ± 0.033,0.001 ± 0.025,0.0075 ± 0.026,-0.0295 ± 0.019,-0.028 ± 0.016,-0.03 ± 0.0099,0.018 ± 0.04,-0.0105 ± 0.049,-0.0815 ± 0.15,-0.041 ± 0.035,-0.032 ± 0.025,-0.0585 ± 0.03,-0.009 ± 0.051,-0.0645 ± 0.04,-0.146 ± 0.029,0.0075 ± 0.074,0.018 ± 0.051,0.0215 ± 0.076,-0.021 ± 0.0099,-0.0205 ± 0.032,0.0245 ± 0.029,-0.016 ± 0.017,-0.0625 ± 0.005,-0.126 ± 0.0021,-0.02 ± 0.099

# Part of the list above, as tab-separated lines.
Test System	level (log10) ([1]; 740 nM)	level (log10) ([1]; 2200 nM)	level (log10) ([1]; 6700 nM)	level (log10) ([1]; 20000 nM)	level (log10) ([2]; 740 nM)	level (log10) ([2]; 2200 nM)	level (log10) [3]	level (log10) [4]	level (log10) (Octafluoroadipamide)	level (log10) (Nonafluoropentanamide)	level (log10) [5]	level (log10) (Tetrafluorosuccinic acid)	level (log10) ([6]; 2200 nM)	level (log10) ([6]; 6700 nM)	level (log10) ([6]; 20000 nM)	level (log10) [7]	level (log10) [8]	level (log10) ([9]; 2200 nM)	level (log10) ([9]; 6700 nM)	level (log10) ([9]; 20000 nM)	level (log10) ([9]; 60000 nM)	level (log10) (Perfluoropinacol; 2200 nM)	level (log10) (Perfluoropinacol; 6700 nM)	level (log10) (Perfluoropinacol; 20000 nM)	level (log10) [10]
4H:CCL26/Eotaxin-3	0.02 ± 0.073	0.018 ± 0.033	0.042 ± 0.058	0.039 ± 0.02	-0.0165 ± 0.043	-0.022 ± 0.023	-0.0215 ± 0.012	-0.0055 ± 0.0064	0.0645 ± 0.042	-0.012 ± 0.035	0.0045 ± 0.0064	-0.0145 ± 0.0021	-0.006 ± 0.025	-0.04 ± 0.011	0.016 ± 0.037	0.025 ± 0.023	0.0425 ± 0.013	0.0355 ± 0.0064	0.017 ± 0.0014	-0.0285 ± 0.023	-0.095 ± 0.018	0.0005 ± 0.033	-0.03 ± 0.048	-0.179 ± 0.037	-0.0085 ± 0.0064
HDF3CGF:TIMP-2	-0.0285 ± 0.033	0.001 ± 0.025	0.0075 ± 0.026	-0.0295 ± 0.019	-0.028 ± 0.016	-0.03 ± 0.0099	0.018 ± 0.04	-0.0105 ± 0.049	-0.0815 ± 0.15	-0.041 ± 0.035	-0.032 ± 0.025	-0.0585 ± 0.03	-0.009 ± 0.051	-0.0645 ± 0.04	-0.146 ± 0.029	0.0075 ± 0.074	0.018 ± 0.051	0.0215 ± 0.076	-0.021 ± 0.0099	-0.0205 ± 0.032	0.0245 ± 0.029	-0.016 ± 0.017	-0.0625 ± 0.005	-0.126 ± 0.0021	-0.02 ± 0.099
